Assay results published in paper PMC10826034.
No constants are given. Whether binding was seen depends on the method and setting. In cells and extracts the contact can be indirect. Some entries that bind do so weakly or less than the wild type.

Molecular target: T1, Serglycin (SRGN) (mouse (endogenous in microglia)) (UniProt P13609)
T1 sequence: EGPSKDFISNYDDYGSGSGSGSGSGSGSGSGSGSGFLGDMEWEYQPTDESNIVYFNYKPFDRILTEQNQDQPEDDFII
Test: co-IP; 500 ug proteins with 1 ug anti-SRGN antibody or normal mouse IgG overnight at 4 °C, then protein A/G agarose beads at 4 °C for 2 h; three washes; western blotting; microglia in vitro

B1: CD44 (receptor, UniProt P15379 23-778)
chain: QIDLNVTCRYAGVFHVEKNGRYSISRTEAADLCQAFNSTLPTMDQMKLALSKGFETCRYGFIEGNVVIPRIHPNAICAANHTGVYILVTSNTSHYDTYCFNASAPPEEDCTSVTDLPNSFDGPVTITIVNRDGTRYSKKGEYRTHQEDIDASNIIDDDVSSGSTIEKSTPEGYILHTYLPTEQPTGDQDDSFFIRSTLATIASTVHSKSHAAAQKQNNWIWSWFGNSQSTTQTQEPTTSATTALMTTPETPPKRQEAQNWFSWLFQPSESKSHLHTTTKMPGTESNTNPTGWEPNEENEDETDTYPSFSGSGIDDDEDFISSTIATTPRVSARTEDNQDWTQWKPNHSNPEVLLQTTTRMADIDRISTSAHGENWTPEPQPPFNNHEYQDEEETPHATSTTPNSTAEAAATQQETWFQNGWQGKNPPTPSEDSHVTEGTTASAHNNHPSQRITTQSQEDVSWTDFFDPISHPMGQGHQTESKDTDSSHSTTLQPTAAPNTHLVEDLNRTGPLSVTTPQSHSQNFSTLHGEPEEDENYPTTSILPSSTKSSAKDARRGGSLPTDTTTSVEGYTFQYPDTMENGTLFPVTPAKTEVFGETEVTLATDSNVNVDGSLPGDRDSSKDSRGSSRTVTHGSELAGHSSANQDSGVTTTSGPMRRPQIPEWLIILASLLALALILAVCIAVNSRRRCGQKKKLVINGGNGTVEDRKPSELNGEASKSQEMVHLVNKEPSETPDQCMTADETRNLQSVDMKIGV
Question: For B1, which binding is on record?
Answer: The binding was “binds”.
